Paper doi:10.1101/2025.04.01.645927
Where two headings read alike, the source gives them in different places. Results are given in words; binding and its absence hold for the method and conditions named. Binding seen in cells or lysates may run through a third protein. A yes stands for co-enrichment or nearness to the bait. Other partners may have been found. Where a sequence is shown, tags or fusion partners need not be part of it. One block for each molecule: values may come before it.

Protein sequences, listed by entry. Tags and fused reporters are not part of them.
UniProt Q8TDM6: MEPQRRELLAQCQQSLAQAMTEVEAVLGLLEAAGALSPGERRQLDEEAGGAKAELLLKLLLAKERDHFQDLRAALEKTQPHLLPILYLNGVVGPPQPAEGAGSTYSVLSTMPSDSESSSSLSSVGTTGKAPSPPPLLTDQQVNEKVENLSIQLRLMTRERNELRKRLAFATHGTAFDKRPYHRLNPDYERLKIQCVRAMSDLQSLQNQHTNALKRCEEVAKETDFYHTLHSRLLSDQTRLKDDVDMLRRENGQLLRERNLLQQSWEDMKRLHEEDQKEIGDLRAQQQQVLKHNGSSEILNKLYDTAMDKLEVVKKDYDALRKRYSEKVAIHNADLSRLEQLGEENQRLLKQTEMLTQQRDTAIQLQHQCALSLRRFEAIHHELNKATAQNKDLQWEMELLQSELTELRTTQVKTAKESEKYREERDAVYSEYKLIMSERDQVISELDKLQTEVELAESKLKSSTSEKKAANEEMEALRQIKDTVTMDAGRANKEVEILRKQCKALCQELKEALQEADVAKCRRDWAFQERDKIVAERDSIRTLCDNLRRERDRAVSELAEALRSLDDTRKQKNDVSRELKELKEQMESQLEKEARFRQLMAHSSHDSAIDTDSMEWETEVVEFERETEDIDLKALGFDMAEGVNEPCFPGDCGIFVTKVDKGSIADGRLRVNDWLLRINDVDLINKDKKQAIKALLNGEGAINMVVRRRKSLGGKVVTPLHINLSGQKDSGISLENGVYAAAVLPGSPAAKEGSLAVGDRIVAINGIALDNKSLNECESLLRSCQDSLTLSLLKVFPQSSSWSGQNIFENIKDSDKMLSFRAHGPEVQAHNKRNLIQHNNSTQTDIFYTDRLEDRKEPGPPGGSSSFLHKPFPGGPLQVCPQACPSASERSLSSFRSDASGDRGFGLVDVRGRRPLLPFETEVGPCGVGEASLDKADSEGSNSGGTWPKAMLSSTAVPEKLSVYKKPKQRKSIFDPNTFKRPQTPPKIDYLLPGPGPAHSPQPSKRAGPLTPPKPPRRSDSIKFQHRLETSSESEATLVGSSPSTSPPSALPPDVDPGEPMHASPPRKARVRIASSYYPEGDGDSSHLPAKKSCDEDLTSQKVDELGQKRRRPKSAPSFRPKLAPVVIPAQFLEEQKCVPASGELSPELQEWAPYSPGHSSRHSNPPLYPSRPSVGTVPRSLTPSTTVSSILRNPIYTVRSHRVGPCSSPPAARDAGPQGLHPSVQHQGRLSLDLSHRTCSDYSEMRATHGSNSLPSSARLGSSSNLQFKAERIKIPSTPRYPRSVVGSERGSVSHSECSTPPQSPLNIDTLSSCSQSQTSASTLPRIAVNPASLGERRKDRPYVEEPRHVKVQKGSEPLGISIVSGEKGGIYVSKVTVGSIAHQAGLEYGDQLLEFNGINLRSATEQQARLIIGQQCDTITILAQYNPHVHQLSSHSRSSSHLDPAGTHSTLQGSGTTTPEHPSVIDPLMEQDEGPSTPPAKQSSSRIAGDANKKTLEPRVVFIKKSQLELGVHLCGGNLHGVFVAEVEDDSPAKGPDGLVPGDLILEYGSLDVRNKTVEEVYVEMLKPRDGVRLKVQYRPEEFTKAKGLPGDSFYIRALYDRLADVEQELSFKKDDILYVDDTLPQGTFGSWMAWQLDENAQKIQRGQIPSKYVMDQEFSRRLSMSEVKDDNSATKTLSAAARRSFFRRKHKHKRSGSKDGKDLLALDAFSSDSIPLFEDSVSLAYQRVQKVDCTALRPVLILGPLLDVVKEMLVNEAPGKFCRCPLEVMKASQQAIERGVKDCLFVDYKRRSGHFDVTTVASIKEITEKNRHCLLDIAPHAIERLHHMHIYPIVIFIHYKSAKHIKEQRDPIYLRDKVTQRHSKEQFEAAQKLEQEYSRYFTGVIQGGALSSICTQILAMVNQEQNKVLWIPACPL
UniProt Q14160: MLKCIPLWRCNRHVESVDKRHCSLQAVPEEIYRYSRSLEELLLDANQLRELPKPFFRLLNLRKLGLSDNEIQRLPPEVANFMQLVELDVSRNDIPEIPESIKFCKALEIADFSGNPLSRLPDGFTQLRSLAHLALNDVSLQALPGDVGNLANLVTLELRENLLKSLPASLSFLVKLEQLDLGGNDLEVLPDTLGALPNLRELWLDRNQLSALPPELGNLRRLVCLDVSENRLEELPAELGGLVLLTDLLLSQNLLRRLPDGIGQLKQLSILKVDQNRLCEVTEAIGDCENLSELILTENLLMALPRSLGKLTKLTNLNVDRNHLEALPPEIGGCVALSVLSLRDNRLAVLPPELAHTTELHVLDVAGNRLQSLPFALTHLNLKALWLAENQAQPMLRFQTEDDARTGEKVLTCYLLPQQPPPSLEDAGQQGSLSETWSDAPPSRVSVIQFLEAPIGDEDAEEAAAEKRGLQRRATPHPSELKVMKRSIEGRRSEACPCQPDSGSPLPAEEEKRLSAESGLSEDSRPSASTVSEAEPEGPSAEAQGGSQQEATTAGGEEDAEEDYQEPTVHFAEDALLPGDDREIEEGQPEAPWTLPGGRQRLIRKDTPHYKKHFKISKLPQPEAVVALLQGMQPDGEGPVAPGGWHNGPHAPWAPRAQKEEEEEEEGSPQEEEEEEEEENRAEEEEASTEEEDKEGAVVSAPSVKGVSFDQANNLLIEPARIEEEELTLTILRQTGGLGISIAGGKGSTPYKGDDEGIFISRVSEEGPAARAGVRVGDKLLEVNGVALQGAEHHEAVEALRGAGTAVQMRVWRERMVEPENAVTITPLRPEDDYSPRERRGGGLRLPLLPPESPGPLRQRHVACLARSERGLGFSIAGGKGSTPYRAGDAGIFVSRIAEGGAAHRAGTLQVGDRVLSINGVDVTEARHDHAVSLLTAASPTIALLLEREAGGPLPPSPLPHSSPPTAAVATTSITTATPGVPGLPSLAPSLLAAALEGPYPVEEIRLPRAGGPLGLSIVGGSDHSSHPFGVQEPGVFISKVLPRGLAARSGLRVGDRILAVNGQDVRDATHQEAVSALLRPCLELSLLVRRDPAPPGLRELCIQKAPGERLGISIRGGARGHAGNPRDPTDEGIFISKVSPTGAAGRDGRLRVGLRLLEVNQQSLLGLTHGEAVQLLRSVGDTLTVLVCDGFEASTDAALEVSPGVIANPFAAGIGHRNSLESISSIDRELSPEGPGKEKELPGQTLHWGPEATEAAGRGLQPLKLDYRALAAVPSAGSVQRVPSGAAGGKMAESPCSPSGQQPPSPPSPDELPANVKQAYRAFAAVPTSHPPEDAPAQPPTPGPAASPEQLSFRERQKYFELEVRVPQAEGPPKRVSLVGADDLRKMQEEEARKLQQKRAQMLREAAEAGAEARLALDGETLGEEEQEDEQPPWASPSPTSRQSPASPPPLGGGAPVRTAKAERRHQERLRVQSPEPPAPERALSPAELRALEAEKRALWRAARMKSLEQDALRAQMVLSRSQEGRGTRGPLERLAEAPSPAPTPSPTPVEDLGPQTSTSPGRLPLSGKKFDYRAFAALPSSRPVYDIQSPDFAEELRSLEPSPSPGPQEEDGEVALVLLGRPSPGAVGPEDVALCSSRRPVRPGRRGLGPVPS
UniProt P35221: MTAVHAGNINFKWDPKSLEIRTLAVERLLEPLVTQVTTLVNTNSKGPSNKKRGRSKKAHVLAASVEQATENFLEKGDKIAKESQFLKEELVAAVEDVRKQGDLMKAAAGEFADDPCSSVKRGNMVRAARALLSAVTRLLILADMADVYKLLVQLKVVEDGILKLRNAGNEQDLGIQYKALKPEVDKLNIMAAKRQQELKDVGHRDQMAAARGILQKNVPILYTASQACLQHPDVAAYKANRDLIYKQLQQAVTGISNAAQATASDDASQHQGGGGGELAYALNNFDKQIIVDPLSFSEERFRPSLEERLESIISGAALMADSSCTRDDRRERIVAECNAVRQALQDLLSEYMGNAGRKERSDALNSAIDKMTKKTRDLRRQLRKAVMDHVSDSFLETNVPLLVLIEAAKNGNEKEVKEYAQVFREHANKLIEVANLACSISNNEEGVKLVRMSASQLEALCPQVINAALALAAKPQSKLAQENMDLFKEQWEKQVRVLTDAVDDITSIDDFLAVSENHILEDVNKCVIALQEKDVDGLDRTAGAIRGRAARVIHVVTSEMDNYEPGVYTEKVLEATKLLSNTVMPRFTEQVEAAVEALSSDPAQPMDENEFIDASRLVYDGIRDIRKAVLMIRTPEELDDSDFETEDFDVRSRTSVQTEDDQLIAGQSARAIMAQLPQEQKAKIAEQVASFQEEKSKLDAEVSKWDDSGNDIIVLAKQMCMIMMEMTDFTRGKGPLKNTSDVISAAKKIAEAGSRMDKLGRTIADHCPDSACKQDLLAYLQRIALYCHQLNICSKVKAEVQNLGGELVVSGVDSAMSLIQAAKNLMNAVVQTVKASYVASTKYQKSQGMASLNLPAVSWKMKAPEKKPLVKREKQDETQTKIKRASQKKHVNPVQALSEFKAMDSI

Assays:
Test in all cases: proximity labelling
[1] = target: T1, VE-cadherin-BioID (VE-cadherin tagged at the C-terminus with BirA* and an HA-tag) (human) (UniProt P33151)
T1 sequence: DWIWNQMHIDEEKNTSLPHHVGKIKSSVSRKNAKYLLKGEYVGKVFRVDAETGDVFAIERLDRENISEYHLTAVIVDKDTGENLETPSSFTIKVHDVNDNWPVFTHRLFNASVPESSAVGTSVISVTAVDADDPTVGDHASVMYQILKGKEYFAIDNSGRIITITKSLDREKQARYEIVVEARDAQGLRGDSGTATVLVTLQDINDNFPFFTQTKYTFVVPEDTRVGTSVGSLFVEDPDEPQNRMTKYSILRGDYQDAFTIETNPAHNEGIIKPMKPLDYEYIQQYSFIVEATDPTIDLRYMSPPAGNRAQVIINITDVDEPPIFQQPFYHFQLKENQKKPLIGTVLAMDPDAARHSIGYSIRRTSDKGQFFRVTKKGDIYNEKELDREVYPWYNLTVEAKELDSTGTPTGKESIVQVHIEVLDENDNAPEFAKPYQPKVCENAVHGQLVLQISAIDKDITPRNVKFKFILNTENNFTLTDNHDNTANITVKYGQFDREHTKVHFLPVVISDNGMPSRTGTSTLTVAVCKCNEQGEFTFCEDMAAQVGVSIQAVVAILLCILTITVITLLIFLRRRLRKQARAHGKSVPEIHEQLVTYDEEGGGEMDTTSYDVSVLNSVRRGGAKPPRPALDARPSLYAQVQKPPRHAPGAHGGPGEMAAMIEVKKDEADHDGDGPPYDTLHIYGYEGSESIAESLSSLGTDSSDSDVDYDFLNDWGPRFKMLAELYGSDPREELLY

[2] = target: T1, VE-cadherin-BioID (VE-cadherin tagged at the C-terminus with BirA* and an HA-tag) (human); remark: listed apart in the source
[3] = target: T2, VE-cadherin-BioID (VE-cadherin tagged at the C-terminus with BirA* and an HA-tag) (human), P33151; details: remark: other sources report otherwise
T2 chain: T1 sequence

binding [1]: binds
Molecule: Disks large 5 (DLG5) (from UniProt Q8TDM6 1-1919)

binding [2]: binds
binding [1]: binds
Molecule: Scribble (Scrib) (from UniProt Q14160 1-1655)

binding [1]: binds
Molecule: α-catenin (from UniProt P35221 1-906)

binding [1]: binds
B1: p120 catenin (protein, UniProt O60716 1-968)
chain: MDDSEVESTASILASVKEQEAQFEKLTRALEEERRHVSAQLERVRVSPQDANPLMANGTLTRRHQNGRFVGDADLERQKFSDLKLNGPQDHSHLLYSTIPRMQEPGQIVETYTEEDPEGAMSVVSVETSDDGTTRRTETTVKKVVKTVTTRTVQPVAMGPDGLPVDASSVSNNYIQTLGRDFRKNGNGGPGPYVGQAGTATLPRNFHYPPDGYSRHYEDGYPGGSDNYGSLSRVTRIEERYRPSMEGYRAPSRQDVYGPQPQVRVGGSSVDLHRFHPEPYGLEDDQRSMGYDDLDYGMMSDYGTARRTGTPSDPRRRLRSYEDMIGEEVPSDQYYWAPLAQHERGSLASLDSLRKGGPPPPNWRQPELPEVIAMLGFRLDAVKSNAAAYLQHLCYRNDKVKTDVRKLKGIPVLVGLLDHPKKEVHLGACGALKNISFGRDQDNKIAIKNCDGVPALVRLLRKARDMDLTEVITGTLWNLSSHDSIKMEIVDHALHALTDEVIIPHSGWEREPNEDCKPRHIEWESVLTNTAGCLRNVSSERSEARRKLRECDGLVDALIFIVQAEIGQKDSDSKLVENCVCLLRNLSYQVHREIPQAERYQEAAPNVANNTGPHAASCFGAKKGKDEWFSRGKKPIEDPANDTVDFPKRTSPARGYELLFQPEVVRIYISLLKESKTPAILEASAGAIQNLCAGRWTYGRYIRSALRQEKALSAIADLLTNEHERVVKAASGALRNLAVDARNKELIGKHAIPNLVKNLPGGQQNSSWNFSEDTVISILNTINEVIAENLEAAKKLRETQGIEKLVLINKSGNRSEKEVRAAALVLQTIWGYKELRKPLEKEGWKKSDFQVNLNNASRSQSSHSYDDSTLPLIDRNQKSDKKPDREEIQMSNMGSNTKSLDNNYSTPNERGDHNRTLDRSGDLGDMEPLKGTTPLMQDEGQESLEEELDVLVLDDEGGQVSYPSMQKI

binding [1]: binds
B2: junction plakoglobin (protein, UniProt P14923 1-745)
chain: MEVMNLMEQPIKVTEWQQTYTYDSGIHSGANTCVPSVSSKGIMEEDEACGRQYTLKKTTTYTQGVPPSQGDLEYQMSTTARAKRVREAMCPGVSGEDSSLLLATQVEGQATNLQRLAEPSQLLKSAIVHLINYQDDAELATRALPELTKLLNDEDPVVVTKAAMIVNQLSKKEASRRALMGSPQLVAAVVRTMQNTSDLDTARCTTSILHNLSHHREGLLAIFKSGGIPALVRMLSSPVESVLFYAITTLHNLLLYQEGAKMAVRLADGLQKMVPLLNKNNPKFLAITTDCLQLLAYGNQESKLIILANGGPQALVQIMRNYSYEKLLWTTSRVLKVLSVCPSNKPAIVEAGGMQALGKHLTSNSPRLVQNCLWTLRNLSDVATKQEGLESVLKILVNQLSVDDVNVLTCATGTLSNLTCNNSKNKTLVTQNSGVEALIHAILRAGDKDDITEPAVCALRHLTSRHPEAEMAQNSVRLNYGIPAIVKLLNQPNQWPLVKATIGLIRNLALCPANHAPLQEAAVIPRLVQLLVKAHQDAQRHVAAGTQQPYTDGVRMEEIVEGCTGALHILARDPMNRMEIFRLNTIPLFVQLLYSSVENIQRVAAGVLCELAQDKEAADAIDAEGASAPLMELLHSRNEGTATYAAAVLFRISEDKNPDYRKRVSVELTNSLFKHDPAAWEAAQSMIPINEPYGDDMDATYRPMYSSDVPLDPLEMHMDMDGDYPIDTYSDGLRPPYPTADHMLA

binding [3]: binds
B3: β-catenin, P35222 1-781 (protein)
chain: MATQADLMELDMAMEPDRKAAVSHWQQQSYLDSGIHSGATTTAPSLSGKGNPEEEDVDTSQVLYEWEQGFSQSFTQEQVADIDGQYAMTRAQRVRAAMFPETLDEGMQIPSTQFDAAHPTNVQRLAEPSQMLKHAVVNLINYQDDAELATRAIPELTKLLNDEDQVVVNKAAVMVHQLSKKEASRHAIMRSPQMVSAIVRTMQNTNDVETARCTAGTLHNLSHHREGLLAIFKSGGIPALVKMLGSPVDSVLFYAITTLHNLLLHQEGAKMAVRLAGGLQKMVALLNKTNVKFLAITTDCLQILAYGNQESKLIILASGGPQALVNIMRTYTYEKLLWTTSRVLKVLSVCSSNKPAIVEAGGMQALGLHLTDPSQRLVQNCLWTLRNLSDAATKQEGMEGLLGTLVQLLGSDDINVVTCAAGILSNLTCNNYKNKMMVCQVGGIEALVRTVLRAGDREDITEPAICALRHLTSRHQEAEMAQNAVRLHYGLPVVVKLLHPPSHWPLIKATVGLIRNLALCPANHAPLREQGAIPRLVQLLVRAHQDTQRRTSMGGTQQQFVEGVRMEEIVEGCTGALHILARDVHNRIVIRGLNTIPLFVQLLYSPIENIQRVAAGVLCELAQDKEAAEAIEAEGATAPLTELLHSRNEGVATYAAAVLFRMSEDKPQDYKKRLSVELTSSLFRTEPMAWNETADLGLDIGAQGEPLGYRQDDPSYRSFHSGGYGQDALGMDPMMEHEMGGHHPGADYPVDGLPDLGHAQDLMDGLPPGDSNQLAWFDTDL
